In patent publication WO2017061602A1 (dated 2017) one finds binding data, which are given here for 4 molecules.

Results are given in words; binding and its absence hold for the method and conditions named. Binding can be weak; no strength is given.

The assay addresses cynomolgus monkey CD147 on cells (HSC-F) (cynomolgus monkey). Description: FACS on HSC-F cells.

B1: PPAT-082-02 (antibody, V domains shown)
VH: EVQLVESGGDLVKPGGSLKLSCAASGFTFSSYGMSWVRQTPDKRLEWVATISSGGSYTYYQDSIKGRFTISRDNAKNTLYLQMSSLKSEDTAMYYCSIGDWADYWGQGTTLTVSS
VL: DIKMTQSPSSMYASLGERVTITCKASQDINSYLSWFQQKPGKSPKTLIHRANRLVAGVPSRFSGSGSGQVYSLTISSLEYEDMGIYFCLQYDEFPLTFGAGTKLELN
Consider B1, for which the binding entry is “binds”.

B2: cPPAT-082-02 (antibody, human IgG1, V domains shown)
VH: B1 VH
VL: B1 VL
B2: the binding result is “binds”.

B3: PPAT-082-01 (antibody, V domains shown)
VH: QVQLQQSGAELMKPGASVKISCKTSGYTFSTYWIEWVKQRPGHGPEWIGEFLPGSGSTNFNEKFKGKATFTADKSSDTAYMQLSSLTSEDSAVYYCTRSGGNFGARFASWGQGTLVTVSA
VL: DIVMTQAAPSVPVTPGESVSISCRSSKSLLSNNGNTYLYWFLQRPGQSPHLLIYRMSSLASGVPDRFSGSGSGTAFTLRISRVEAEDVGVYYCMQHLEYPFTFGGGTKLEIK
B3: the binding result is reported as “binds”.

B4: cPPAT-082-01 (antibody, human IgG1, V domains shown)
VH: B3 VH
VL: B3 VL
Regarding B4, the binding entry is “binds”.
